Measured values taken from patent US20210270842A1.
No constants are given. Whether binding was seen depends on the method and setting. Some results given as binding are weak or reduced against the parent protein; the word gives no strength.

By UniProt entry, the sequences of proteins in these tests, tags left out. Where a name states a change or a piece, a line headed by the entry shows the natural chain unless it says otherwise.
UniProt P01042: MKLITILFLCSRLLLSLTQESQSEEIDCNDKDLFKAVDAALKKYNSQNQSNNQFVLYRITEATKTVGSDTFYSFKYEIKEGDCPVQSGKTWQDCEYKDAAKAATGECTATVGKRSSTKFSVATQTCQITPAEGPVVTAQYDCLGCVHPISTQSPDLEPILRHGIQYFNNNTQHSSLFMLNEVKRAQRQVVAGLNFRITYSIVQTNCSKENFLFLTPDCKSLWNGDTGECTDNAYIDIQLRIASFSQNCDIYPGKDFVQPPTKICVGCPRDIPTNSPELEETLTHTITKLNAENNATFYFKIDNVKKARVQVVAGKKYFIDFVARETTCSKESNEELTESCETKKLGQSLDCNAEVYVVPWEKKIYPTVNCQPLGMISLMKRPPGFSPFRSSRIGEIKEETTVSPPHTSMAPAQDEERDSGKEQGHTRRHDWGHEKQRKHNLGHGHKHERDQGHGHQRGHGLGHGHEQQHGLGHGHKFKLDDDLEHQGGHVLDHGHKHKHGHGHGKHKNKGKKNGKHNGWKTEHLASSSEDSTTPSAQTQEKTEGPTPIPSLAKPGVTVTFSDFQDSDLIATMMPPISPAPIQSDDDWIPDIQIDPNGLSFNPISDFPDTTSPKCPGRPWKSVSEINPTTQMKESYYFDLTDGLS

Assays:
[1] = molecular target: cleaved high molecular weight kininogen (HMWK) (human) (UniProt P01042); assay: ELISA; Fab coated on 96-well plate, biotinylated antigen, streptavidin-HRP
[2] = molecular target: cleaved high molecular weight kininogen (HMWK) (human) (UniProt P01042); assay: ELISA: Fab coated on 96-well plate, LowCross block, biotinylated antigen, streptavidin-HRP; signal over uncoated well

Binder | binding [1] | binding [2]
559B-M0044-E09 (Fab, V domains shown) VH: EVQLLESGGGLVQPGGSLRLSCAASGFTFSQYSMGWVRQAPGKGLEWVSSIYSSGGSTQYADSVKGRFTISRDNSKNTLYLQMNSLRAEDTATYYCARTRRGWFGEDYYYYMDVWGKGTTVTVSS VL: DIQMTQSPSSLSASVGDRITITCRASQGIRNDVGWYQQKPGKAPQRLIYAASSLQSGVPSRFSGSGSGTEFTLTISSLQPEDFATYYCLQHNSYPLTFGGGTKVEIK | binds | binds
559B-M0003-C08 (Fab, V domains shown) VH: EVQLLESGGGLVQPGGSLRLSCAASGFTFSPYMMYWVRQAPGKGLEWVSSISPSGGKTWYADSVKGRFTISRDNSKNTLYLQMNSLRAEDTAVYYCARLGGSSSYYYYYYYGMDVWGQGTTVTVSS VL: QSALTQSPSASGTPGQRVTISCSGSSSNIGGNTVNWYQQFPGTAPKLLIYSNNQRPSGVPDRFSGSKSGTSASLAISGLQSEDEAIYYCASWDDRLNGHWVFGGGTRLTVL | binds | binds
559B-M0038-F04 (Fab, V domains shown) VH: EVQLLESGGGLVQPGGSLRLSCAASGFTFSKYEMMWVRQAPGKGLEWVSSISPSGGYTMYADSVKGRFTISRDNSKNTLYLQMNSLRAEDTAVYYCARHRSKWNDAPFDSWGQGTLVTVSS VL: DIQMTQSPSSLSASVGDRVAITCRASQSIDTYLNWYQQKPGKAPKLLIYAASKLEDGVPSRFSGSGTGTDFTLTIRSLQPEDFASYFCQQSYSSPGITFGPGTKVEIK | binds | binds
559B-M0039-H06 (Fab, V domains shown) VH: EVQLLESGGGLVQPGGSLRLSCAASGFTFSAYDMHWVRQAPGKGLEWVSSIWPSGGGTYYADSVKGRFTISRDNSKNTLYLQMNSLRAEDTAVYYCARGDYDYGDFTDAFDIWGQGTMVTVSS VL: QSALTQPASVSGSPGQSITISCTGTSSDVGSYNLVSWYQQHPGKAPKLMIYEGSKRPSGVPDRFSGSKSGNTASLIISGLQAEDEADYYCCSYAGSYSYVFGTGTRVTVL | binds | binds
559B-M0044-C05 (Fab, V domains shown) VH: EVQLLESGGGLVQPGGSLRLSCAASGFTFSIYQMYWVRQAPGKGLEWVSSIYSSGGRTFYADSVKGRFTISRDNSKNTLYLQMNSLRAEDTAVYYCATRGSWYVGGNEYFQHWGQGTLVTVSS VL: QSVLTQSPSLSLSPGQTASIPCSGDTLGNKFVSWYQQKPGQSPVLVIYQDTKRPSGIPERFSGSNSGNTATLTITGTQAMDEADYYCQVWDSNSYAFGPGTKVTVL | binds | binds
559B-M0047-H01 (Fab, V domains shown) VH: EVQLLESGGGLVQPGGSLRLSCAASGFTFSFYMMYWVRQAPGKGLEWVSSISSSGGFTRYADSVKGRFTISRDNSKNTLYLQMNSLRAEDTAVYYCARVRGLAVAAPDYWGQGTLVTVSS VL: QSELTQPASVSGSPGQSITISCIGTSSDIGTYNYVSWYQQHPGKAPKLMIYDVNTRPSGVSDRFSGSKSGNTASLTISGLQAEDEADYYCSSYTTSVTWVFGGGTTLTVL | binds | binds
559B-M0067-E02 (Fab, V domains shown) VH: EVQLLESGGGLVQPGGSLRLSCAASGFTFSLYPMVWVRQAPGKGLEWVSSIYPSGGFTTYADSVKGRFTISRDNSKNTLYLQMNSLRAEDTAVYYCARSSRYYYYGMDVWGQGTTVTVSS VL: QYELTQPPSMSGTPGQRVTISCSGSSSNIGSEYVYWFQQLPGTAPKLLIYRNDQRPSGVPDRFSGSKSGTSASLAISGLRSEDETDYYCSTWDDTLRTGVFGGGTKVTVL | binds | binds
559B-M0019-E12 (Fab, V domains shown) VH: EVQLLESGGGLVQPGGSLRLSCAASGFTFSGYNMYWVRQAPGKGLEWVSRISPSGGWTSYADSVKGRFTISRDNSKNTLYLQMNSLRAEDTAVYYCTRGQWMDWWGQGTMVTVSS VL: DIQMTQSPSSLSASVGDRVIITCRASQNITGYLNWYQQKPGKAPNLLIYDASRMNTGVPSRFRGSGSGTDYILTIYKLEPEDIGTYFCQHTDDFSVTFGGGTKVDLK | binds | binds
559B-M0048-D12 (Fab, V domains shown) VH: EVQLLESGGGLVQPGGSLRLSCAASGFTFSRYQMTWVRQAPGKGLEWVSSIGSSGGFTNYADSVKGRFTISRDNSKNTLYLQMNSLRAEDTAVYYCARLPANFYYYMDVWGKGTTVTVSS VL: DIQMTQSPSSLSASVGDRVTITCRASQNIYSFLNWYQQKPGKAPKLLIYATSSLQSGVPSRFSGSGSGTDFTLTISSLQPEDFASYYCQQNYNIPWTFGQGTKVEIK | binds | binds
559B-M0039-D08 (Fab, V domains shown) VH: EVQLLESGGGLVQPGGSLRLSCAASGFTFSNYAMQWVRQAPGKGLEWVSWIYSSGGPTYYADSVKGRFTISRDNSKNTLYLQMNSLRAEDTAVYYCARGLPGQPFDYWGQGTLVTVSS VL: QSELTQPPSASGTPGQRVTISCSGSSSNIGNNYVYWYQQFPGTAPKLLIYRNNQRPSGVPDRFSGSKSGTSASLAISGLRSEDEADYYCATWDDRLSGWVFGGGTKLTVL | binds | binds
559B-M0068-C07 (Fab, V domains shown) VH: EVQLLESGGGLVQPGGSLRLSCAASGFTFSSYQMHWVRQAPGKGLEWVSGIYSSGGSTPYADSVKGRFTISRDNSKNTLYLQMNSLRAEDTAVYYCARGHHGMDVWGQGTTVTVSS VL: DIQMTQSPSSVSASVGDRVTITCRASQGISSWLAWYQQKPGKAPKLLIYAASNLQSGVPSRFSGSGSGTDFTLTISSLQPEDFATYYCQKYNIAPYTFGQGTKLEIK | binds | binds
559B-M0021-G11 (Fab, V domains shown) VH: EVQLLESGGGLVQPGGSLRLSCAASGFTFSPYPMTWVRQAPGKGLEWVSGISSSGGFTPYADSVKGRFTISRDNSKNTLYLQMNSLRAEDTAVYYCARMVRGVIKAFDIWGQGTMVTVSS VL: QYELTQPPSASGTPGQRVTISCSGSSSNIGSHYVFWYQQLPGAAPKLLIYRNNQRPSGVPDRFSGSKSGTSASLAISGLRSEDEADYYCATWDNSLSAWVFGGGTKLTVL | binds | binds
559B-M0061-G06 (Fab, V domains shown) VH: EVQLLESGGGLVQPGGSLRLSCAASGFTFSKYTMWWVRQAPGKGLEWVSVISSSGGKTYYADSVKGRFTISRDNSKNTLYLQMNSLRAEDTAVYYCARTANRAFDIWGQGTMVTVSS VL: DIQMTQSPAALSVSPGERATLSCRASQSVSSDLAWYQQKPGQAPRLLIHGASTRATGIPARFSGSGSGREFTLTISSLQSEDFAVYYCQQYNDWPPLFGPGTKVNIK | binds | binds
559B-M0036-G12 (Fab, V domains shown) VH: EVQLLESGGGLVQPGGSLRLSCAASGFTFSRYYMAWVRQAPGKGLEWVSGIVPSGGQTGYADSVKGRFTISRDNSKNTLYLQMNSLRAEDTAVYYCARTRRGWFGEDYYYYMDVWGKGTLVTVSS VL: DIQMTQSPGTLSLSPGERATVSCRASQSVGSTYLAWYQHKPGQAPRLLIYGASSRATGIPDRFSGSGSGTDFTLTISSLEPEDFAIYYCQHFHTSPPGITFGQGTRLEIK | binds | binds
559B-M0038-H03 (Fab, V domains shown) VH: EVQLLESGGGLVQPGGSLRLSCAASGFTFSKYDMHWVRQAPGKGLEWVSRISSSGGKTEYADSVKGRFTISRDNSKNTLYLQMNSLRAEDTAVYYCAREYRYCTANTCSLYGMDVWGRGTTVTVSS VL: DIQMTQSPSSLSASVGDRVAITCRTSQGVRSDFAWYQQTPGKAPRRLIYAAFILDNGVPSRFSGSGSGTEFTLTISSLQPEDFATYYCQQSYSTPLTFGGGTKVEMK | binds | binds
559B-M0017-H08 (Fab, V domains shown) VH: EVQLLESGGGLVQPGGSLRLSCAASGFTFSPYWMHWVRQAPGKGLEWVSVISPSGGGTGYADSVKGRFTISRDNSKNTLYLQMNSLRAEDTAVYYCARESRGSGSHEDYWGQGTLVTVSS VL: DIQMTQSPATLSLSPGERATLSCRASQSVSSYLAWYQQKPGQAPRLLIYGASNRGTGIPARFSGSGSGTEFTLTISSLQSEDFAVYFCQQYKNWPNLTFGGGTKVDIK | binds | binds
559B-M0042-E06 (Fab, V domains shown) VH: EVQLLESGGGLVQPGGSLRLSCAASGFTFSMYKMSWVRQAPGKGLEWVSVISPSGGRTYYADSVKGRFTISRDNSKNTLYLQMNSLRAEDTAVYYCARGTRTSGLDYWGQGTLVTVSS VL: QSALTQPASVSGSPGQSITISCTGTSSDVGGYKYVSWYQQHPGKAPKLVIYEVSNRPSGVSNRFSGSKSGNTASLTISGLQAEDEADYYCSSYTSSTTVVFGGGTKLTVL | binds | binds
559B-M0035-F05 (Fab, V domains shown) VH: EVQLLESGGGLVQPGGSLRLSCAASGFTFSHYPMAWVRQAPGKGLEWVSGIVSSGGRTVYADSVKGRFTISRDNSKNTLYLQMNSLRAEDTAVYYCARDPYDFWSEGAFDIWGQGTMVTVSS VL: QSVLTQPPSASGTPGQRVTISCSGSSSNIGNNFVYWYHQVPGTAPKLLIYKNNQRPSGVPDRFSGSKSAASASLAISGLRSEDEADYYCAAWDNSLSGFYVFGAGTKVTVL | binds | binds
559B-M0035-H09 (Fab, V domains shown) VH: EVQLLESGGGLVQPGGSLRLSCAASGFTFSWYGMHWVRQAPGKGLEWVSRIGPSGGPTSYADSVKGRFTISRDNSKNTLYLQMNSLRAEDTAVYYCARGYYGTGRYFQHWGQGTLVTVSS VL: DIQMTQSPDSLSLSPGDRATLSCRASQSVGSDYLAWYQQKPGQAPRLLIYDASNRATGIPARFSGSGSGTDFTLTISSLEPEDFAVYYCQQRSNWPPTFGGGTKVEIK | binds | binds
559B-M0043-C06 (Fab, V domains shown) VH: EVQLLESGGGLVQPGGSLRLSCAASGFTFSAYAMRWVRQAPGKGLEWVSYISSSGGETMYADSVKGRFTISRDNSKNTLYLQMNSLRAEDTAVYYCANGYGRIDYWGQGTLVTVSS VL: QSVLTQPASVSGSPGQSITISCTGTSSDIGGYNYVSWYQQHPGKAPKLMIYEVSNRPSGVSNRFSGSKSGNTASLTISGLQAEDEADYYCSSYTSGSTRVFGTGTRVTVL | binds | binds
